# ± gives the standard deviation of the averaged measurements. The entries are a selection whose mix differs from that of the whole data set.
# Assays:
# Experiment in all cases: NP40-soluble protein abundance relative to vehicle (solubility fold change) (ratio); higher = more soluble protein in presence of AMP-PNP
# [1] = molecular target: T1, UniProt Q96BZ9 and related entries
# T1 sequence (whole entry): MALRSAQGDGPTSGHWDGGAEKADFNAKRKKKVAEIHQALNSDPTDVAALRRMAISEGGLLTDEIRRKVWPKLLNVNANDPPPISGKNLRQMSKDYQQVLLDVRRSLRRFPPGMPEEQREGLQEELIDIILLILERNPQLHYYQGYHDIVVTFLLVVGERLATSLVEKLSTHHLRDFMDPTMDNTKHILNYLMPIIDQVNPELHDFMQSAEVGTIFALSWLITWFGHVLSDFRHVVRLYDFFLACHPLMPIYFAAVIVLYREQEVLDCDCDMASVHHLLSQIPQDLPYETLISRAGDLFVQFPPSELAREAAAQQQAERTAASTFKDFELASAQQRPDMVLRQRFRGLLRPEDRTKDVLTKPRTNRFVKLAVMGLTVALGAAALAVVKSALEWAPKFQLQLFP
# Procedure, shortened: (§1)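 Each value is a fold change relative to the detergent-processed vehicle, calculated per replicate from vsn-normalised intensities. Jurkat crude lysate received eight concentrations (0.1 to 10 mM) for 10 min at room temperature and 3 min at 37 °C, then was solubilised in 0.8% NP40 with benzonase (60 min, 4 °C). The ultracentrifuged supernatant was TMT-labelled and run by LC-MS/MS in three independent experiments.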
# [2] = molecular target: T2, UniProt Q96F46 and related entries
# T2 sequence (whole entry): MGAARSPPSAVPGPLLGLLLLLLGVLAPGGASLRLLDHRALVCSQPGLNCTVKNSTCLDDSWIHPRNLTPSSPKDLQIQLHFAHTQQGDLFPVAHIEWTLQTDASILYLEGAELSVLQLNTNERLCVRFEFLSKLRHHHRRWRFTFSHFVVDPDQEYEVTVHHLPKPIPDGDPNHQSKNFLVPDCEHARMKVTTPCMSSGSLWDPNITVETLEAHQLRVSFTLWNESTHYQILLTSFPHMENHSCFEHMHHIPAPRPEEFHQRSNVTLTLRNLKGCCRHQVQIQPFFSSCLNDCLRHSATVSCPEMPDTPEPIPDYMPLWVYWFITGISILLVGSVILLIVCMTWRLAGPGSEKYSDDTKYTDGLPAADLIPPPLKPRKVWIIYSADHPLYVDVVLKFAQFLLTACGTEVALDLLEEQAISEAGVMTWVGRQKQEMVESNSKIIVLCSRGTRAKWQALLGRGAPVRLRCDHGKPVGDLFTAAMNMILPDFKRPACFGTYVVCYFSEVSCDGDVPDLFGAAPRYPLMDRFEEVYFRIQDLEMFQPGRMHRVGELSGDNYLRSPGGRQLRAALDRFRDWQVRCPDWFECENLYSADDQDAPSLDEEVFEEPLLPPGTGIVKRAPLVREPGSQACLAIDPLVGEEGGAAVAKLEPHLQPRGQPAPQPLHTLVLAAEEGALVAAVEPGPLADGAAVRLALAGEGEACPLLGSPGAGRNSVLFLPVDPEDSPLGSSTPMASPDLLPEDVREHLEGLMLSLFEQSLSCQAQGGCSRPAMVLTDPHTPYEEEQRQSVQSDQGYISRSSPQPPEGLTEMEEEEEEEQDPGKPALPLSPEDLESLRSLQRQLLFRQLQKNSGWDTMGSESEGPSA
# Procedure, shortened: as §1
# [3] = molecular target: T3, UniProt Q96G25 and related entries
# T3 sequence (whole entry): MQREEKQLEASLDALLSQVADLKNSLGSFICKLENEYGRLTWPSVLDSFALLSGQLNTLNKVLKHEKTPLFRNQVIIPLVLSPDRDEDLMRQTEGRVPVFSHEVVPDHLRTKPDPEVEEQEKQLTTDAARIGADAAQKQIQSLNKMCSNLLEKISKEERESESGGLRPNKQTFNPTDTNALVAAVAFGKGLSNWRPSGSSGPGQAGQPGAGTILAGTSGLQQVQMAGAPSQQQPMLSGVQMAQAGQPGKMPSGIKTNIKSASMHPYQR
# Procedure, shortened: as §1
# UniProt Q96GS4 = molecular target: T4, UniProt Q96GS4
# T4 sequence (whole entry): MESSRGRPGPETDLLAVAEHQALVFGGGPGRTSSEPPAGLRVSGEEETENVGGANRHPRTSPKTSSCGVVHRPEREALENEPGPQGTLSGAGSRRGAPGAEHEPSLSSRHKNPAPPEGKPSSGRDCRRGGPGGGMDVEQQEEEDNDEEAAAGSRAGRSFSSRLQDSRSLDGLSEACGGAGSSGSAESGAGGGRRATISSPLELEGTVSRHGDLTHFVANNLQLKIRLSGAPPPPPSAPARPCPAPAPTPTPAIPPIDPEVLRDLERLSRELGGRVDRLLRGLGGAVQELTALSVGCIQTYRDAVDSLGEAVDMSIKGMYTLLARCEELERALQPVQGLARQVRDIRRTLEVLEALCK
# Procedure, shortened: as §1
# [4] = molecular target: T5, UniProt Q96I15 and related entries
# T5 sequence (whole entry): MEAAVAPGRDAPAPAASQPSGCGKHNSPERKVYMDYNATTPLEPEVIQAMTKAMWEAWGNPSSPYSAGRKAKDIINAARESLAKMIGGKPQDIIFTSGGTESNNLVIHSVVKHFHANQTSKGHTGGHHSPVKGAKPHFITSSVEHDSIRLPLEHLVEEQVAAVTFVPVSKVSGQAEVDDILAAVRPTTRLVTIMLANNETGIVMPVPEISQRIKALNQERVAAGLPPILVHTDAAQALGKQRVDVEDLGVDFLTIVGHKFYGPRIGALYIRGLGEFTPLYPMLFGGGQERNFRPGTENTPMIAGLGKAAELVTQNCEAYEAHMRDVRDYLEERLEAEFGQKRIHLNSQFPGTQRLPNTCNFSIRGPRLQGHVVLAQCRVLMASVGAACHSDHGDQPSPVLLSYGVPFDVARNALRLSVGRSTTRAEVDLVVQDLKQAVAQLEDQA
# Procedure, shortened: as §1
smiles,measurement,setting,value
Nc1ncnc2c1ncn2[C@@H]1O[C@H](COP(=O)(O)OP(=O)(O)NP(=O)(O)O)[C@@H](O)[C@H]1O [adenylyl imidodiphosphate],NP40-soluble protein abundance,[1]; concentration: 1mM,1.01 ± 0.032
same,NP40-soluble protein abundance,[1]; concentration: 2mM,1.02 ± 0.037
same,NP40-soluble protein abundance,[1]; concentration: 4mM,1.02 ± 0.021
same,NP40-soluble protein abundance,[1]; concentration: 6mM,1.02 ± 0.016
same,NP40-soluble protein abundance,[1]; concentration: 8mM,1.01 ± 0.029
same,NP40-soluble protein abundance,[1]; concentration: 10mM,1.02 ± 0.021
same,NP40-soluble protein abundance,[2]; concentration: 1mM,1 ± 0.015
same,NP40-soluble protein abundance,[2]; concentration: 2mM,0.981 ± 0.03
same,NP40-soluble protein abundance,[2]; concentration: 4mM,1 ± 0.029
same,NP40-soluble protein abundance,[2]; concentration: 6mM,0.98 ± 0.017
same,NP40-soluble protein abundance,[2]; concentration: 8mM,0.966 ± 0.022
same,NP40-soluble protein abundance,[2]; concentration: 10mM,0.978 ± 0.011
same,NP40-soluble protein abundance,[3]; concentration: 1mM,0.991 ± 0.021
same,NP40-soluble protein abundance,[3]; concentration: 2mM,1.03 ± 0.065
same,NP40-soluble protein abundance,[3]; concentration: 4mM,1.01 ± 0.027
same,NP40-soluble protein abundance,[3]; concentration: 6mM,0.965 ± 0.079
same,NP40-soluble protein abundance,[3]; concentration: 8mM,0.957 ± 0.068
same,NP40-soluble protein abundance,[3]; concentration: 10mM,0.97 ± 0.03
same,NP40-soluble protein abundance,UniProt Q96GS4; concentration: 1mM,1 ± 0.031
same,NP40-soluble protein abundance,UniProt Q96GS4; concentration: 2mM,0.992 ± 0.015
same,NP40-soluble protein abundance,UniProt Q96GS4; concentration: 4mM,1.02 ± 0.027
same,NP40-soluble protein abundance,UniProt Q96GS4; concentration: 6mM,0.9651 ± 0.0084
same,NP40-soluble protein abundance,UniProt Q96GS4; concentration: 8mM,0.978 ± 0.013
same,NP40-soluble protein abundance,UniProt Q96GS4; concentration: 10mM,1 ± 0.013
same,NP40-soluble protein abundance,[4]; concentration: 1mM,0.998 ± 0.018
same,NP40-soluble protein abundance,[4]; concentration: 2mM,0.964 ± 0.011
same,NP40-soluble protein abundance,[4]; concentration: 4mM,0.982 ± 0.029
same,NP40-soluble protein abundance,[4]; concentration: 6mM,0.978 ± 0.018
same,NP40-soluble protein abundance,[4]; concentration: 8mM,0.988 ± 0.047
same,NP40-soluble protein abundance,[4]; concentration: 10mM,0.977 ± 0.031

# 2 entries picked at random from those above:
smiles,measurement,setting,value
Nc1ncnc2c1ncn2[C@@H]1O[C@H](COP(=O)(O)OP(=O)(O)NP(=O)(O)O)[C@@H](O)[C@H]1O [adenylyl imidodiphosphate],NP40-soluble protein abundance,UniProt Q96GS4; concentration: 8mM,0.978 ± 0.013
same,NP40-soluble protein abundance,UniProt Q96GS4; concentration: 1mM,1 ± 0.031

# Reference: the supplement of paper PMC6411743
